Test results as given in patent US20110212084A1.
No constants are given. Whether binding was seen depends on the method and setting.

What was measured:
Assay in all cases: condition: competitor series starting at approximately 1000-fold the KD; DELFIA epitope competition; competitor vs biotinylated human IgE on immobilised IgG
[1] = biological target: human IgM (purified, Calbiochem) (human)
[2] = biological target: human IgD (purified, Calbiochem) (human)
[3] = biological target: human IgA (purified, Calbiochem) (human)
[4] = biological target: human IgG (purified, Calbiochem) (human)

Measured: binding

B1: Antibody 33GL (germlined IgG) (antibody, V domains shown)
VH: EVQLLESGGGLVQPGGSLSLSCAAPGFTFSSYAMSWVRQAPGKGLEWVSAISGGSGGRTYYADSVKGRFTISKDNSKNTLYLQMNSLRAEDTAVYYCARHIAVAGTRGFDYWGRGTLVTVSS
VL: SYELTQPPSVSVSPGQTASITCSGDKLGDTYASWYQQKPGLSPALVIYQDDKRPSGIPERFSGSNSGNTATLTISGTQAMDEADYYCLAWDTRTSGAVFGGGTKLTVL
no binding: all assays above
